Laboratory results reported in article PMC7819943, “Rice protein-binding microarrays: a tool to detect cis-acting elements near promoter regions in rice”.
Some of the results follow.

By UniProt entry, the sequences of proteins in these tests, tags left out.
UniProt Q0JBA9, entry or part of it: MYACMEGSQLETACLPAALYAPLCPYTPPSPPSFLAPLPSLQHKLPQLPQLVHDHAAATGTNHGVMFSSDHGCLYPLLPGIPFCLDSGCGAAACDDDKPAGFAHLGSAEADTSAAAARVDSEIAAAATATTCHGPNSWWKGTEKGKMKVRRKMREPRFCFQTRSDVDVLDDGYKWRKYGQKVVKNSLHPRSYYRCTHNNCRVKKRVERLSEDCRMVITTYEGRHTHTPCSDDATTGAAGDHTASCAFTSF

What follows are sequences tested against OsWRKY34 (Oryza sativa, UniProt Q0JBA9 1-250) (assay: protein-binding microarray (RPBM); PBS, 2% BSA, 51.3 ng/ul salmon testes DNA, 50 uM zinc acetate, 200 nM TF, 25 C, 1 h; high values mean tight binding). Conditions: protein: recombinant; tags: N-terminal polyhistidine and DsRed monomer fusion (pET32a); label: CyDye5-dUTP incorporated in the synthesized complementary strand; 3' TTTTT single-stranded linker to array surface; dsDNA, one strand shown.
Outline: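 Using Ni–NTA, transcription factors fused N-terminally to polyhistidine and DsRed were purified after expression in E. coli BL21-CodonPlus. These were incubated at 200 nM with a blocked, double-stranded custom Agilent array for 1 h at 25 °C in a buffer containing 50 µM zinc acetate, and the array was washed. The binding signal is per-feature fluorescence intensity (arbitrary units) on an Axon 4000B scanner.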
With “ATCTCACCTCCCATATCTTATTTGCCAAACACACCCTTCCCGGAGTCACCTAGTGCAG” the binding signal was 8260 fluorescence intensity (a.u.).
“AACCATATCATTTCATAGCCATTTATTTTAACTTATATCCCGGAGTCACCTAGTGCAG” was tested, and the binding signal was 9590 fluorescence intensity (a.u.).
With “AGACAGCTTCTCAATTTGTTTCTTTGGCCCTGATTTCCTTCGGAGTCACCTAGTGCAG” the binding signal was 9000 fluorescence intensity (a.u.).
“TTCCTGTTCGACTGCGTCGCCGAGTTCTTCGCCGAACTCCCGGAGTCACCTAGTGCAG” was tested, and the binding signal was 8420 fluorescence intensity (a.u.).
In the case of “ACTGTTTTCACACATTGTACTTCCTGGATCTGTTGTGCTCCGGAGTCACCTAGTGCAG”, the binding signal was 8940 fluorescence intensity (a.u.).
“AGTCCACAATTTATATAGCAAGCATTCTTTCTCCTTCGGTCGGAGTCACCTAGTGCAG” was tested, and the binding signal was 8110 fluorescence intensity (a.u.).
With “GTGGTGGTGGTGGACTGGTGGTGGCGGCTAGCGAGATAATCGGAGTCACCTAGTGCAG” the binding signal was 16200 fluorescence intensity (a.u.).
In the case of “AAATTTTTGACATGATTTTGGAGTTGTGTGTAGCCGCCACCGGAGTCACCTAGTGCAG”, the binding signal was 8130 fluorescence intensity (a.u.).
With “GCCGCCTTGCACCTGCCTGCTCTGCGCCGCATGCCGCCACCGGAGTCACCTAGTGCAG” the binding signal was 8560 fluorescence intensity (a.u.).
With “ACTATAATACTGTCTCTATTTTTGTTGATATATAGTATCTCGGAGTCACCTAGTGCAG” the binding signal was 9120 fluorescence intensity (a.u.).
With “TAGTGTCTCTTATTCCCACGGAACGATTTTCTTTCTTATCCGGAGTCACCTAGTGCAG” the binding signal was 11200 fluorescence intensity (a.u.).
“CTACGTATCAGTACAACCCATATGTCAGTCACATATAGAACGGAGTCACCTAGTGCAG” was tested, and the binding signal was 8430 fluorescence intensity (a.u.).
In the case of “AGCATCCGCAAGAATTGTCAATTTCCCTGCCTATTAATCTCGGAGTCACCTAGTGCAG”, the binding signal was 8320 fluorescence intensity (a.u.).
In the case of “TTTTTGATCTGTCCCGATTTGTAACTTTTTCATTTCTTTTCGGAGTCACCTAGTGCAG”, the binding signal was 10900 fluorescence intensity (a.u.).
For “GGGAGGTGTGGTCGGTGCCGGGGACGTCGCACGGTGTGGACGGAGTCACCTAGTGCAG”, the binding signal was 10600 fluorescence intensity (a.u.).
With “CATCATGCTCATGCTTTCTGAACTGCTTGCGCATCCGTATCGGAGTCACCTAGTGCAG” the binding signal was 9170 fluorescence intensity (a.u.).
For “AACTCGGCCATCTCAACTTCTTGGTCAACCAGTTATTATACGGAGTCACCTAGTGCAG”, the binding signal was 9640 fluorescence intensity (a.u.).
“GTGGAGTGGAGCTGAAGCCCCGCTAGGATCGCCTTTTTTCCGGAGTCACCTAGTGCAG” was tested, and the binding signal was 9840 fluorescence intensity (a.u.).
With “TTTTGCTTCTCCTGCGTCCTGCCTCTCTCGTTTCTGTAAGCGGAGTCACCTAGTGCAG” the binding signal was 11800 fluorescence intensity (a.u.).
For “GATATGAAATCTCGCATTGTTTGGTACTATTCGTTCCAGACGGAGTCACCTAGTGCAG”, the binding signal was 8660 fluorescence intensity (a.u.).
With “GCCACCACCACCCACCGCCGCCGCCGCCACCGCAAACTCTCGGAGTCACCTAGTGCAG” the binding signal was 8050 fluorescence intensity (a.u.).
With “CACGAGGTGATTTAATTTGGTTGTGTTTCAGCTTTTTAAACGGAGTCACCTAGTGCAG” the binding signal was 9360 fluorescence intensity (a.u.).
For “TCTTCCACCTGCCTTGTGCGTCCCTTCTAACTCACCTTGTCGGAGTCACCTAGTGCAG”, the binding signal was 8310 fluorescence intensity (a.u.).
For “GGGGTGACATTTCAATTGTTTTTCTCTTATATTTGTAATCCGGAGTCACCTAGTGCAG”, the binding signal was 20100 fluorescence intensity (a.u.).
“TAATATCCGATGTGACATGCCAAAACTTTACACCCCTAATCGGAGTCACCTAGTGCAG” was tested, and the binding signal was 8330 fluorescence intensity (a.u.).
“TCTGCCACCTTTGAAAGGTTCCGTCATCATGCACCAGTTTCGGAGTCACCTAGTGCAG” was tested, and the binding signal was 8450 fluorescence intensity (a.u.).
In the case of “TGATTTATGAATTATGATTACTAATACTGTTTTTTGTCCTCGGAGTCACCTAGTGCAG”, the binding signal was 8780 fluorescence intensity (a.u.).
In the case of “CGCGCCGTGCGCCACTCTGCCAACCGCGCTCCGCCGCCGCCGGAGTCACCTAGTGCAG”, the binding signal was 8100 fluorescence intensity (a.u.).
In the case of “TGTAATTAACTTTTTTTGTCTATATTTAATACTCTATATACGGAGTCACCTAGTGCAG”, the binding signal was 8640 fluorescence intensity (a.u.).
In the case of “GTCTGCTCCTCTGGTGAAAATTTGTGCTGTTCAAATAATTCGGAGTCACCTAGTGCAG”, the binding signal was 8370 fluorescence intensity (a.u.).
For “TTGGGTGCTATCCTGTTCTTGTGTTGTGATTCAATTAATTCGGAGTCACCTAGTGCAG”, the binding signal was 14400 fluorescence intensity (a.u.).
With “ACTGCCACTACACACACCTCACAAACCCACAACAAGACGTCGGAGTCACCTAGTGCAG” the binding signal was 9500 fluorescence intensity (a.u.).
“TAATATATTCCTCGAGGGACATCACTTATTGTTTACGTGTCGGAGTCACCTAGTGCAG” was tested, and the binding signal was 9840 fluorescence intensity (a.u.).
For “TCTCTTCTGACCACTGCGGGCTGTACCCTCTGCCGGCGCTCGGAGTCACCTAGTGCAG”, the binding signal was 9250 fluorescence intensity (a.u.).
For “CCGCCACCCGAATCGCTACGCGCCTTGCCTTTTTACCACCCGGAGTCACCTAGTGCAG”, the binding signal was 10300 fluorescence intensity (a.u.).
“CCTCTTTCTCTCTCCTCAGTCATCTCTCACTCTTCTTCTTCGGAGTCACCTAGTGCAG” was tested, and the binding signal was 8540 fluorescence intensity (a.u.).
“CACAACCATTCTCTATTTAATTTCTTCGCTTACTTTCTCTCGGAGTCACCTAGTGCAG” was tested, and the binding signal was 9290 fluorescence intensity (a.u.).
“GCTATCCCACATTCCAAACTCCATGTCCAACCATCCAATTCGGAGTCACCTAGTGCAG” was tested, and the binding signal was 9150 fluorescence intensity (a.u.).
“ATGTTGACACATCTTAATACTATGAATCTCGTTACATTCGCGGAGTCACCTAGTGCAG” was tested, and the binding signal was 9310 fluorescence intensity (a.u.).
“GGGGTTTGACAGTGGGGTGGAGAGGACAAGTAAACAGTGGCGGAGTCACCTAGTGCAG” was tested, and the binding signal was 8860 fluorescence intensity (a.u.).
For “CAATTCATTTCGTCGTTTAGCGTGCTAGTCTACTTCACCTCGGAGTCACCTAGTGCAG”, the binding signal was 10700 fluorescence intensity (a.u.).
With “TCGTCATCATCCTCGCCGCCATCGCCATCGCCATTGCCTACGGAGTCACCTAGTGCAG” the binding signal was 9180 fluorescence intensity (a.u.).
For “CAGATCCCTTTCTTCCTCACGACTCCTGGATTTTTATAAACGGAGTCACCTAGTGCAG”, the binding signal was 8280 fluorescence intensity (a.u.).
For “TGTGATATGTTCCTGTGAGCTGTCCCTCATCTAATTACCCCGGAGTCACCTAGTGCAG”, the binding signal was 8440 fluorescence intensity (a.u.).
In the case of “GGCGGAGCTCGGGATGTGGGAGGAGGAGGGCTATTTATTCCGGAGTCACCTAGTGCAG”, the binding signal was 14400 fluorescence intensity (a.u.).
“CACTCGCACTCGCACTCGCACTCGCACCACCAAACGTCGCCGGAGTCACCTAGTGCAG” was tested, and the binding signal was 13500 fluorescence intensity (a.u.).
In the case of “CATGTCCTTCAAGTTCATATTATCGCATCTTGTTTTTAAGCGGAGTCACCTAGTGCAG”, the binding signal was 9470 fluorescence intensity (a.u.).
“CATGATGCAGTTCACGCACACCGCGCCACCTCCACCGCCTCGGAGTCACCTAGTGCAG” was tested, and the binding signal was 8650 fluorescence intensity (a.u.).
For “ATTTGGTTTTTACTGTACATTACCAGCGTGTTTTTTTTTTCGGAGTCACCTAGTGCAG”, the binding signal was 8950 fluorescence intensity (a.u.).
With “CTATGACGTGTTCTGTTCGGAGGCCTCGATTCCAATTCGACGGAGTCACCTAGTGCAG” the binding signal was 8720 fluorescence intensity (a.u.).
“GGCTGCGTTTCTAGTGTAGTTCGTTTCGAGTTGACCCTGACGGAGTCACCTAGTGCAG” was tested, and the binding signal was 10000 fluorescence intensity (a.u.).
“CGCCCAGATTATTTTTTACTACTACTGAAGCCAAGCACTGCGGAGTCACCTAGTGCAG” was tested, and the binding signal was 8130 fluorescence intensity (a.u.).
For “ATTGTTTGGGCATTTTCCTAATTTTTCTTCAGATTTTAAACGGAGTCACCTAGTGCAG”, the binding signal was 8500 fluorescence intensity (a.u.).
For “TTTGTTTGGGTAGTTCTTTATTTAGGTAGTAGCACAGCTTCGGAGTCACCTAGTGCAG”, the binding signal was 9830 fluorescence intensity (a.u.).
